Experimental data reported in paper PMC8748963.
Results are given in words; binding and its absence hold for the method and conditions named. Binding seen in cells or lysates may run through a third protein. Some binding calls cover weakened binding; strength is not graded here. For some of these results: Tags and fused reporters may be left off the sequences shown.

T1: Flag-ELK1 (UniProt P19419)
T1 sequence: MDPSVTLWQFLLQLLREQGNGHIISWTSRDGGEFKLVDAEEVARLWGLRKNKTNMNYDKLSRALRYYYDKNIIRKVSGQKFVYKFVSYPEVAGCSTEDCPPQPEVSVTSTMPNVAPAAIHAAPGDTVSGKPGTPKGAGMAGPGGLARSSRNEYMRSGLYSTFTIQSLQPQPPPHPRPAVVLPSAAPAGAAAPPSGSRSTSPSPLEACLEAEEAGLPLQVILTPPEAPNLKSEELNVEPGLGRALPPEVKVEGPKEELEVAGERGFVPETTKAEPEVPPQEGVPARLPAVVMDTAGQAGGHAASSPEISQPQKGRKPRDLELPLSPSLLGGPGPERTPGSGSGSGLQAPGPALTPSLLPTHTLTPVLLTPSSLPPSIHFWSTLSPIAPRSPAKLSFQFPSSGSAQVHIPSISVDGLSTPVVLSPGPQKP

T2: Flag-MKL1 (UniProt Q969V6)
T2 sequence: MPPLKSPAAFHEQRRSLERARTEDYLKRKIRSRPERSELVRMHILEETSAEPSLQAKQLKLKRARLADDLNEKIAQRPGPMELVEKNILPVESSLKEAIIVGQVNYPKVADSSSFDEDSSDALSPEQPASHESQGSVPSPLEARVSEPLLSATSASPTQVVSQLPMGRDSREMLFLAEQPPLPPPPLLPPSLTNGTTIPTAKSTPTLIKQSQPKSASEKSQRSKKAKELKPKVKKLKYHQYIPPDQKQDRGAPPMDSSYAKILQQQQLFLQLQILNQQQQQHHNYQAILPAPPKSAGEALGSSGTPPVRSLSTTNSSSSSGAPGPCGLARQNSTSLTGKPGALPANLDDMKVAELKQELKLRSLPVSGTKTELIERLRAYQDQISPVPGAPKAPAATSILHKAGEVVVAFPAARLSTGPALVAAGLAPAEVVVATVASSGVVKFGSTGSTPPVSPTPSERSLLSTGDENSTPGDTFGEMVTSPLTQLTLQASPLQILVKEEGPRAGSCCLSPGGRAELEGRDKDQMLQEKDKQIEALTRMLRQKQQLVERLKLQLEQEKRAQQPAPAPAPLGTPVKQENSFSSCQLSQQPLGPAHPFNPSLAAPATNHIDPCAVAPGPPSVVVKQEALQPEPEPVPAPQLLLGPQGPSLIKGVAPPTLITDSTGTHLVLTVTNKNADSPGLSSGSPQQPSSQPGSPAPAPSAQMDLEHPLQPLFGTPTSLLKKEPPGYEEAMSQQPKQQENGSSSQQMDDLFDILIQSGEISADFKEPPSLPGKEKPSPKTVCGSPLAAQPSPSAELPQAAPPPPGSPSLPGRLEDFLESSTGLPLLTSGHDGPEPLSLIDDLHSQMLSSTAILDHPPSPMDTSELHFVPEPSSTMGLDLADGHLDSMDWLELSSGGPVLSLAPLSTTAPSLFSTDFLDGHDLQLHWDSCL

T3: HA-SRF (serum response factor) (UniProt P11831)
T3 sequence: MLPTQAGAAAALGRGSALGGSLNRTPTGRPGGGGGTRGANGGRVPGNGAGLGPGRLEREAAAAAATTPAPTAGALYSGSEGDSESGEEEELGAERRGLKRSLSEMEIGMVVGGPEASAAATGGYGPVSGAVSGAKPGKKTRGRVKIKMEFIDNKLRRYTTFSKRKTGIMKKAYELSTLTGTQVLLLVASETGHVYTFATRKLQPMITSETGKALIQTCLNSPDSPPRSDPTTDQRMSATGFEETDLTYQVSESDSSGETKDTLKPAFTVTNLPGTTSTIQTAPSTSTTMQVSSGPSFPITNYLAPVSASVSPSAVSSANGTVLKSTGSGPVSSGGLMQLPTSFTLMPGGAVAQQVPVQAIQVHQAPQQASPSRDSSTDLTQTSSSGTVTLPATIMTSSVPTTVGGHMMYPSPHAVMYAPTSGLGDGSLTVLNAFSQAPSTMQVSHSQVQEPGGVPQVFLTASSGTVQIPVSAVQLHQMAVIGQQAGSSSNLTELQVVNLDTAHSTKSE

T4: SRF, endogenous in C2C12 cells (mouse (endogenous in C2C12)) (UniProt Q9JM73)
T4 sequence: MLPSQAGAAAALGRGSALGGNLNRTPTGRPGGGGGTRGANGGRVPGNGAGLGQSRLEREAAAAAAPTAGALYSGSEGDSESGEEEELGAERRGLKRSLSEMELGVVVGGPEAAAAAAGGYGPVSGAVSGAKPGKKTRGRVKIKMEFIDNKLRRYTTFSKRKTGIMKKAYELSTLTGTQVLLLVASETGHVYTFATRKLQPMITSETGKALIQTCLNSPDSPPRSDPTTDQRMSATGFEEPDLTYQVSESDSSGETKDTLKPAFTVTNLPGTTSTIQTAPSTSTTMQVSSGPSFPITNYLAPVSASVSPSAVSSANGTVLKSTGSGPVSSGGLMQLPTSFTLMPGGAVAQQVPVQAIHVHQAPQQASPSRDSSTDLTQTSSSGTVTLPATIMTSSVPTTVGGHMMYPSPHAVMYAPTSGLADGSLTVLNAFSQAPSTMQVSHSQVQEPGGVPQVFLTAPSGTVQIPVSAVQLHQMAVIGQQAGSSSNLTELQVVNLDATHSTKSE


Assays:
Flag-ELK1 = target: T1, Flag-ELK1; assay: co-IP; HEK293T cells cotransfected with tagged plasmids (HA-SRF or HA-SRF^S101/103D, Flag-ELK1 or Flag-MKL1, with or without Myc-NLK); NP-40 lysis buffer (30 mM Tris-HCl pH 7.4, 150 mM NaCl, 1% NP-40), antibody and Protein A/G beads overnight at 4 °C; immunoblot
Flag-MKL1 = target: T2, Flag-MKL1; assay: as above
[1] = target: ELK1, endogenous in C2C12 cells (mouse (endogenous in C2C12)) (UniProt P41969); assay: co-IP; endogenous proteins of C2C12 lysates; anti-SRF antibody (blot for NLK) or anti-ELK1 antibody (blot for SRF; wild-type and NLK-knockdown cells, with TPA); NP-40 lysis buffer, Protein A/G beads overnight at 4 °C
[2] = target: T3, HA-SRF (serum response factor); assay: co-IP; HEK293T cells cotransfected with tagged plasmids (HA-SRF or HA-SRF^S101/103D, Flag-ELK1 or Flag-MKL1, with or without Myc-NLK); NP-40 lysis buffer (30 mM Tris-HCl pH 7.4, 150 mM NaCl, 1% NP-40), antibody and Protein A/G beads overnight at 4 °C; immunoblot
[3] = target: T4, SRF, endogenous in C2C12 cells (mouse (endogenous in C2C12)); assay: co-IP; endogenous proteins of C2C12 lysates; anti-SRF antibody (blot for NLK) or anti-ELK1 antibody (blot for SRF; wild-type and NLK-knockdown cells, with TPA); NP-40 lysis buffer, Protein A/G beads overnight at 4 °C

Row | binding (Flag-ELK1) | binding (Flag-MKL1) | Binder | further results
1 | binds | binds | HA-SRF (serum response factor) (protein, UniProt P11831 1-508) MLPTQAGAAAALGRGSALGGSLNRTPTGRPGGGGGTRGANGGRVPGNGAGLGPGRLEREAAAAAATTPAPTAGALYSGSEGDSESGEEEELGAERRGLKRSLSEMEIGMVVGGPEASAAATGGYGPVSGAVSGAKPGKKTRGRVKIKMEFIDNKLRRYTTFSKRKTGIMKKAYELSTLTGTQVLLLVASETGHVYTFATRKLQPMITSETGKALIQTCLNSPDSPPRSDPTTDQRMSATGFEETDLTYQVSESDSSGETKDTLKPAFTVTNLPGTTSTIQTAPSTSTTMQVSSGPSFPITNYLAPVSASVSPSAVSSANGTVLKSTGSGPVSSGGLMQLPTSFTLMPGGAVAQQVPVQAIQVHQAPQQASPSRDSSTDLTQTSSSGTVTLPATIMTSSVPTTVGGHMMYPSPHAVMYAPTSGLGDGSLTVLNAFSQAPSTMQVSHSQVQEPGGVPQVFLTASSGTVQIPVSAVQLHQMAVIGQQAGSSSNLTELQVVNLDTAHSTKSE | 
2 | binds | binds | HA-SRF^S101/103D (protein, UniProt P11831 1-508) MLPTQAGAAAALGRGSALGGSLNRTPTGRPGGGGGTRGANGGRVPGNGAGLGPGRLEREAAAAAATTPAPTAGALYSGSEGDSESGEEEELGAERRGLKRDLDEMEIGMVVGGPEASAAATGGYGPVSGAVSGAKPGKKTRGRVKIKMEFIDNKLRRYTTFSKRKTGIMKKAYELSTLTGTQVLLLVASETGHVYTFATRKLQPMITSETGKALIQTCLNSPDSPPRSDPTTDQRMSATGFEETDLTYQVSESDSSGETKDTLKPAFTVTNLPGTTSTIQTAPSTSTTMQVSSGPSFPITNYLAPVSASVSPSAVSSANGTVLKSTGSGPVSSGGLMQLPTSFTLMPGGAVAQQVPVQAIQVHQAPQQASPSRDSSTDLTQTSSSGTVTLPATIMTSSVPTTVGGHMMYPSPHAVMYAPTSGLGDGSLTVLNAFSQAPSTMQVSHSQVQEPGGVPQVFLTASSGTVQIPVSAVQLHQMAVIGQQAGSSSNLTELQVVNLDTAHSTKSE | 
3 |  |  | SRF, endogenous in C2C12 cells (protein, UniProt Q9JM73 1-504) MLPSQAGAAAALGRGSALGGNLNRTPTGRPGGGGGTRGANGGRVPGNGAGLGQSRLEREAAAAAAPTAGALYSGSEGDSESGEEEELGAERRGLKRSLSEMELGVVVGGPEAAAAAAGGYGPVSGAVSGAKPGKKTRGRVKIKMEFIDNKLRRYTTFSKRKTGIMKKAYELSTLTGTQVLLLVASETGHVYTFATRKLQPMITSETGKALIQTCLNSPDSPPRSDPTTDQRMSATGFEEPDLTYQVSESDSSGETKDTLKPAFTVTNLPGTTSTIQTAPSTSTTMQVSSGPSFPITNYLAPVSASVSPSAVSSANGTVLKSTGSGPVSSGGLMQLPTSFTLMPGGAVAQQVPVQAIHVHQAPQQASPSRDSSTDLTQTSSSGTVTLPATIMTSSVPTTVGGHMMYPSPHAVMYAPTSGLADGSLTVLNAFSQAPSTMQVSHSQVQEPGGVPQVFLTAPSGTVQIPVSAVQLHQMAVIGQQAGSSSNLTELQVVNLDATHSTKSE | binding [1]: binds
4 |  |  | Myc-NLK (Nemo-like kinase) (enzyme, UniProt Q9UBE8 1-527) MSLCGARANAKMMAAYNGGTSAAAAGHHHHHHHHLPHLPPPHLHHHHHPQHHLHPGSAAAVHPVQQHTSSAAAAAAAAAAAAAMLNPGQQQPYFPSPAPGQAPGPAAAAPAQVQAAAAATVKAHHHQHSHHPQQQLDIEPDRPIGYGAFGVVWSVTDPRDGKRVALKKMPNVFQNLVSCKRVFRELKMLCFFKHDNVLSALDILQPPHIDYFEEIYVVTELMQSDLHKIIVSPQPLSSDHVKVFLYQILRGLKYLHSAGILHRDIKPGNLLVNSNCVLKICDFGLARVEELDESRHMTQEVVTQYYRAPEILMGSRHYSNAIDIWSVGCIFAELLGRRILFQAQSPIQQLDLITDLLGTPSLEAMRTACEGAKAHILRGPHKQPSLPVLYTLSSQATHEAVHLLCRMLVFDPSKRISAKDALAHPYLDEGRLRYHTCMCKCCFSTSTGRVYTSDFEPVTNPKFDDTFEKNLSSVRQVKEIIHQFILEQQKGNRVPLCINPQSAAFKSFISSTVAQPSEMPPSPLVWE | binding [2]: binds
5 |  |  | NLK, endogenous in C2C12 cells (enzyme, UniProt O54949 1-527) MSLCGTRANAKMMAAYNGGTSAAAAGHHHHHHHHLPHLPPPHLHHHHHPQHHLHPGSAAAVHPVQQHTSSAAAAAAAAAAAAAMLNPGQQQPYFPSPAPGQAPGPAAAAPAQVQAAAAATVKAHHHQHSHHPQQQLDIEPDRPIGYGAFGVVWSVTDPRDGKRVALKKMPNVFQNLVSCKRVFRELKMLCFFKHDNVLSALDILQPPHIDYFEEIYVVTELMQSDLHKIIVSPQPLSSDHVKVFLYQILRGLKYLHSAGILHRDIKPGNLLVNSNCVLKICDFGLARVEELDESRHMTQEVVTQYYRAPEILMGSRHYSNAIDIWSVGCIFAELLGRRILFQAQSPIQQLDLITDLLGTPSLEAMRTACEGAKAHILRGPHKQPSLPVLYTLSSQATHEAVHLLCRMLVFDPSKRISAKDALAHPYLDEGRLRYHTCMCKCCFSTSTGRVYTSDFEPVTNPKFDDTFEKNLSSVRQVKEIIHQFILEQQKGNRVPLCINPQSAAFKSFISSTVAQPSEMPPSPLVWE | binding [3]: binds
